Drawing on paper PMC3738515, “HLA-DO as the Optimizer of Epitope Selection for MHC Class II Antigen Presentation” (PLoS ONE, 2013), this text covers binding for 1 molecule.

These are yes or no findings as the source states them, for the method shown.

Assay [1] deals with recombinant soluble HLA-DO (human). In words: fluorescent peptide binding control (Sephadex G-50 spin column, fluorescence); fluorescent peptide incubated with accessory molecules (DM, DO or DM/DO) in the absence of DR1 for over 10 hours at 37°C, citrate-phosphate pH 5.0; both purified.
Another assay concerns the target soluble HLA-DM (human). The description is as above.

B1: CII(259–273) peptide (peptide)
peptide: CAGFKGEQGPKGEP
modifications: fluorescein on the N-terminus
B1: the binding result in assay [1] is “no binding (tested: 30 µM peptide, 4 µM DO)”; with soluble HLA-DM (human), “no binding (tested: 30 µM peptide, 1 µM DM)”.
